# Assay: in vivo
# Settings: mouse, iv
# Description: The acute toxicity of the products of the invention was determined on groups of 20 Swiss OF1 mice weighing 22 to 24 grams by intravenous route. […] The limits of confidence of these values were determined by the method of Litchfield and Wilcoxon (J. Pharmacol. Exp. Ther. 1949, pages 96 to 99) and are given in table III.
smiles,measurement,value
"CCN(CC)CC(=O)Nc1c(C)cccc1C [lidocaine, reference compound]",LD50 at 192 h,31.5 mg/kg
